± gives the uncertainty stated by the source. Many of these values have a large error.
Test: self-splicing fitness, log relative to wild type (ln ratio); higher = more splicing; Tetrahymena group I intron in knt gene, E. coli kanamycin selection, DiMSum; sequences stand for … in CUCUCU…GGAGGGAAAAGUUAUCAGGCAUGCACCUGGUAGCUAGUCUUUAAACCAAUAGAUUGCAUCGGUUUAAAAGGCAAGACCGUCAAAUUGCGGGAAAGGGGUCAACAGCCGUUCAGUACCAAGUCUCAGGGGAAACUUUGAGAUGGCCUUGCAAAGGGUAUGGUAAUAAGCUGACGGACAUGGUCCUAACCACGCAGCCAAGUCCUAAGUCAACAGAUCUUCUGUUGAUAUGGAUGCAGUUCACAGACUAAAUGUCGGUCGGGGAAGAUGUAUUCUUCUCAUAAGAUAUAGUCGGACCUCUCCUUAAUGGGAGCUAGCGGAUGAAGUGAUGCAACACUGGAGCCGCUGGGAACUAAUUUGUAUGCGAAAGUAUAUUGAUUAGUUUUGGAGUACUCGUGGUCG
Summary of the method: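 Library with all eight P1ex-region intron nucleotides randomised, intron inside the knt kanamycin-resistance gene on pET-22b(+), in E. coli BL21(DE3). Cells grew overnight at 37°C or 30°C on LB agar with or without 25 μg/mL kanamycin (plus 100 μg/mL carbenicillin, 50 μM IPTG, 0.2% rhamnose), in six replicate transformations. Pooled colonies were amplicon-sequenced on Illumina HiSeq 2500. DiMSum fitness is the error-weighted combination of wild-type-normalised replicate fold changes, kanamycin versus none.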

Sequence | self-splicing fitness (ln) (30 °C) | self-splicing fitness (ln) (37 °C)
CAGGAGCAAUAUUACGCGGU | -4.7 ± 1 | –
GGCCAGCAAUAUUACGUCAC | – | -2.47 ± 0.76
CGGCAGCAAUAUUACGGGGG | -3 ± 0.13 | -1.86 ± 0.16
CGUUAGCAAUAUUACGGGGA | -4.1 ± 1 | –
UAAUAGCAAUAUUACGACCC | – | -1.78 ± 1.2
GUCUAGCAAUAUUACGACAU | -0.643 ± 0.014 | -0.146 ± 0.032
UCCGAGCAAUAUUACGCCGC | -3 ± 0.62 | –
AUUGAGCAAUAUUACGGAGC | -4.16 ± 1 | -2.68 ± 0.54
GCAGAGCAAUAUUACGCCAG | – | -2.15 ± 0.78
CCUUAGCAAUAUUACGCCAC | -4.2 ± 1 | -2.72 ± 1.1
CUUCAGCAAUAUUACGCUCC | – | -3.4 ± 0.73
CUUUAGCAAUAUUACGUUGA | -5.24 ± 1 | –
GGAGAGCAAUAUUACGUAGC | -3.63 ± 1 | –
GGAAAGCAAUAUUACGUCCC | -3.68 ± 0.6 | –
CAGUAGCAAUAUUACGUUCU | -3.76 ± 0.52 | –
CAGGAGCAAUAUUACGAAAC | – | -2.07 ± 0.79
CUCUAGCAAUAUUACGCCCG | -1.89 ± 0.55 | –
UGGGAGCAAUAUUACGCUAC | 0.0943 ± 0.78 | 0.917 ± 1.1
UGGUAGCAAUAUUACGGCAC | -2.22 ± 0.7 | –
GCGAAGCAAUAUUACGCUAC | -3.21 ± 0.84 | -2.54 ± 1.1
CACGAGCAAUAUUACGUAGG | -3.91 ± 0.51 | –

Sequence | self-splicing fitness (ln) (30 °C) | self-splicing fitness (ln) (37 °C)
ACGGAGCAAUAUUACGCAAC | -3.17 ± 0.54 | –
CUCGAGCAAUAUUACGCCCU | -2.97 ± 0.63 | -2.07 ± 1.1
ACCUAGCAAUAUUACGCCAC | – | -3.33 ± 0.52
UUCAAGCAAUAUUACGAGCC | – | -1.82 ± 0.58
AUCUAGCAAUAUUACGUCGG | -3.23 ± 0.2 | -2.72 ± 0.27
CCAAAGCAAUAUUACGGGUC | -4.39 ± 0.23 | -3.1 ± 0.22
CUAAAGCAAUAUUACGUUCU | -4.08 ± 0.24 | -3.07 ± 0.26
CUGCAGCAAUAUUACGUCUC | -4.43 ± 0.51 | –
GCAGAGCAAUAUUACGCUAA | -2.73 ± 0.55 | –
GGGUAGCAAUAUUACGCCCU | -1.83 ± 0.61 | -1.1 ± 0.5
AUAUAGCAAUAUUACGUCCG | -3.17 ± 0.77 | –
GGGGAGCAAUAUUACGAUGC | – | 0.834 ± 0.65
CAGUAGCAAUAUUACGGCCC | -3.06 ± 1.1 | -1.08 ± 0.93
CGAGAGCAAUAUUACGCCAC | -5.25 ± 1 | -1.38 ± 0.74
CUUAAGCAAUAUUACGGUCC | – | -1.95 ± 0.52
CUGCAGCAAUAUUACGCUGC | – | -3.05 ± 0.61
AUUGAGCAAUAUUACGUGAC | -4.25 ± 0.74 | -1.61 ± 0.45
CUUAAGCAAUAUUACGCCGC | -4.93 ± 1 | -1.09 ± 0.52
UUUCAGCAAUAUUACGCGAC | – | -2.05 ± 0.5
GGGUAGCAAUAUUACGGCUC | -0.998 ± 0.82 | -0.44 ± 1.4
CCAGAGCAAUAUUACGGCCA | -1.45 ± 0.56 | 0.0981 ± 1.2

Record cards, from the list above.
CAGUAGCAAUAUUACGUUCU as listed: self-splicing fitness (ln) (30 °C): -3.76 ± 0.52
GGGGAGCAAUAUUACGAUGC as listed: self-splicing fitness (ln) (37 °C): 0.834 ± 0.65

(listing goes on)

Sequence | self-splicing fitness (ln) (30 °C) | self-splicing fitness (ln) (37 °C)
CUGAAGCAAUAUUACGGACC | -4.49 ± 1 | –
GUCUAGCAAUAUUACGCAGA | -4.03 ± 0.52 | –
AGAGAGCAAUAUUACGGGAC | -2.5 ± 0.57 | –
CUAGAGCAAUAUUACGCCCA | – | -0.681 ± 0.51
CGGUAGCAAUAUUACGCAUU | -4.45 ± 0.59 | –
AUUCAGCAAUAUUACGAGAC | -4.61 ± 0.74 | –
AUCCAGCAAUAUUACGGAAC | -2.68 ± 0.18 | -1.06 ± 0.15
GGGGAGCAAUAUUACGGUCC | – | -1.84 ± 0.57
CCUCAGCAAUAUUACGCUAC | – | -2.11 ± 0.5
UCUCAGCAAUAUUACGAUCC | -4.15 ± 0.59 | –
UUCUAGCAAUAUUACGAGGG | -4.59 ± 0.51 | –
GGCGAGCAAUAUUACGAGAC | – | -1.1 ± 0.92
UUCGAGCAAUAUUACGGCCC | – | -0.433 ± 0.67
GUGGAGCAAUAUUACGCUUA | -1.86 ± 0.14 | -1.04 ± 0.22
CAUAAGCAAUAUUACGUACU | -4.6 ± 0.59 | –
UUGGAGCAAUAUUACGAGGU | – | -2.56 ± 0.75
CUUUAGCAAUAUUACGCAGC | -4.38 ± 0.72 | –
CUCUAGCAAUAUUACGGCGA | -3.08 ± 0.76 | -1.76 ± 0.58
AGAUAGCAAUAUUACGAAGG | – | -3.38 ± 0.74
GUAGAGCAAUAUUACGGUUC | -1.84 ± 0.11 | -0.825 ± 0.14

In another format: results already given
Sequence,self-splicing fitness (ln) (30 °C),self-splicing fitness (ln) (37 °C)
GGCCAGCAAUAUUACGUCAC,–,-2.47 ± 0.76
CGGCAGCAAUAUUACGGGGG,-3 ± 0.13,-1.86 ± 0.16

— the supplement of paper PMC7877785
